# Hit rate of the full screen: of about 350,000 compounds, about 220 (0.063%) were called active. The inconclusive results got no clear call from the source; some entries with a clear call stand among them for comparison. Calls come from the whole dose curve; as a rule, active = well fitted activation curve with a large enough effect; inconclusive = small, poorly fitted or top-dose-only effect; inactive = no such curve, though single readings can be large or run the other way. A potency beside an inconclusive call is a rough fit, not a confirmed value.
# Test: qHTS for Activators of Integrin-Mediated Alleviation for Muscular Dystrophy; note: nearly all actives have a fitted effect of over 60% in size;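 for activation: 100% = response of the positive control SU9516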
# Details: alpha7betagal myoblasts, beta-gal FDG fluorescence, 48 h; activation: at 38.3 µM (top of the series)
# In short: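 Alpha7betagal+/- myoblasts (passage 13) were plated 16-24 hr, then exposed to compounds (1:260 dilution of DMSO stock) for 48 hours at 37C. After MPER lysis, β-galactosidase reporter activity was read as FDG fluorescence (ex 480/em 540) after 30 minutes.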
# Potency is the fitted concentration of half-maximal effect.
Structure (SMILES),Potency,activation
Cc1nnc(SC(C(=O)Nc2cc(Cl)cc(Cl)c2)c2ccccc2)[nH]c1=O (configuration not stated),"inconclusive: 11.2 µM [activator, partial curve, poor fit]",
CN(/N=C/c1ccccc1O)C(=S)c1ccccc1,inactive,
COc1ccc(-c2[nH]ncc2CN2CCCO2)c(F)c1,"inconclusive: 5.01 µM [activator, single point]",
CCN(Cc1ccccc1)Cc1c(F)cccc1F,inactive,
O=C(NN=C1CCCCCC1)c1c[nH]c2ccccc12,inactive,
Cc1ccc(-c2nnn(CC(=O)N(Cc3cccs3)C(C(=O)NCC3CCCO3)c3ccco3)n2)o1 (configuration not stated),"inconclusive: 6.31 µM [activator, partial curve, poor fit]",
COc1ccc2c(COC(=O)CNC(=O)C34CC5CC(CC(C5)C3)C4)cc(=O)oc2c1,inactive,
O=C(COC(=O)c1ccccc1C(=O)N1CCN(c2ccccc2)CC1)Nc1ccc(F)cc1,"inconclusive: 5.01 µM [activator, single point]",
CCc1cc(SC#N)cc(C)c1N,"inconclusive: 5.01 µM [activator, single point]",
N#Cc1ccc(C(=O)Nc2cccc(NC(=O)c3ccco3)c2)c(F)c1,"inconclusive: 2.82 µM [activator, partial curve, poor fit]",
CCC1CN(C(=O)N2CCC(C(=O)NCc3ccc(C)o3)CC2)c2ccccc2O1 (configuration not stated),"inconclusive: 1.41 µM [activator, partial curve, poor fit]",
Cc1cccc(NC(=O)CN2CCSc3ccccc32)c1,"inconclusive: 28.2 µM [activator, single point]",
CC(C)CC(=O)N/C(N)=N/c1nc2ccccc2o1,inactive,
Cc1cc2ccccc2nc1SCC(=O)N1c2ccccc2CC1C (configuration not stated),"inconclusive: 28.2 µM [activator, single point]",
CC(C)(C)C(=O)CSc1nnc(Nc2ccccc2)s1,"inconclusive: 2 µM [activator, partial curve, poor fit]",
O=c1c2cn[nH]c2nc(SCc2ccccc2F)n1-c1ccc(Br)cc1,inactive,
Cn1nc(C(F)(F)F)c(-c2cccc(C(F)(F)F)c2)c1NC(=O)CSCC(=O)O,inactive,
O=C(Nc1cc(=O)[nH]c2ncnn12)c1ccco1,"inconclusive: 28.2 µM [activator, single point]",
CCCNS(=O)(=O)c1cccc(C(=O)NNC(=O)c2cc(C)oc2C)c1,"inconclusive: 3.55 µM [activator, partial curve, poor fit]",
CC(=O)c1cccc(NC(=O)CN(C)S(=O)(=O)c2ccccc2)c1,"inconclusive: 3.55 µM [activator, single point]",
CCSc1nc2ccccc2[nH]1,"inconclusive: 2.82 µM [activator, single point]",
COc1cc(NC(=O)CSc2nnc(-c3cc(C)on3)o2)cc(OC)c1,"inconclusive: 3.16 µM [activator, single point]",
Cc1c(C(=O)N2CCOCC2)c(S(=O)(=O)Nc2ccc(C(C)C)cc2)c(C)n1C,"inconclusive: 1.41 µM [activator, partial curve, poor fit]",
CC(=O)C1=C(O)C(=O)N(Cc2ccccc2)C1c1ccc(Br)cc1 (configuration not stated),inactive,

# Laid out differently: 5 of the compounds above.
Structure (SMILES)	Potency	activation
CN(/N=C/c1ccccc1O)C(=S)c1ccccc1	inactive	
COc1ccc(-c2[nH]ncc2CN2CCCO2)c(F)c1	inconclusive: 5.01 µM [activator, single point]	
COc1cc(NC(=O)CSc2nnc(-c3cc(C)on3)o2)cc(OC)c1	inconclusive: 3.16 µM [activator, single point]	
Cc1c(C(=O)N2CCOCC2)c(S(=O)(=O)Nc2ccc(C(C)C)cc2)c(C)n1C	inconclusive: 1.41 µM [activator, partial curve, poor fit]	
CC(=O)C1=C(O)C(=O)N(Cc2ccccc2)C1c1ccc(Br)cc1 (configuration not stated)	inactive	

# Later entries.

Structure (SMILES),Potency,activation
O=C1c2ccccc2NC(c2ccc(Cl)cc2Cl)N1O (configuration not stated),inactive,
CC(C)(C)c1[nH]c2ccccc2c1/C=N/O,"inconclusive: 5.01 µM [activator, single point]",
C(=C\c1nc(N2CCCC2)c2ccccc2n1)/c1ccccc1,"inconclusive: 0.355 µM [activator, full curve, poor fit]",
O=C(c1ccc(Cl)cc1)N1CCCOC1,"inconclusive: 5.01 µM [activator, single point]",
O=C(NCc1cccnc1)C(=O)NCC1OCCN1S(=O)(=O)c1ccc(F)cc1 (configuration not stated),inactive,
COC(=O)/C(C#N)=C1/SC=C(C)N1c1ccccc1,,inconclusive: 1.72% [activator]
Cc1ccc(N2CC(C(=O)N3CCC(C(=O)Nc4cccc(Br)c4)CC3)CC2=O)cc1 (configuration not stated),inactive,
CCCCC(=O)OCC(=O)Nc1cccc(S(=O)(=O)NC2=NCCCCC2)c1,"inconclusive: 3.16 µM [activator, single point]",
O=c1nc(SCc2c(F)cccc2Cl)nc(-c2ccccc2)[nH]1,"inconclusive: 3.55 µM [activator, single point]",
CCc1ccc2c(CC(=O)NNC(=O)c3ccncc3)coc2c1,"inconclusive: 2.82 µM [activator, single point]",
c1ccc(-c2nnc(CN3CCN(C(c4ccccc4)c4ccccc4)CC3)o2)cc1,inactive,
Cc1ccc(/C=C/C(=O)O)cc1S(=O)(=O)NCc1ccco1,inactive,
COc1ccccc1N1C(=O)CC(Sc2n[nH]c(-c3cccc(C)c3)n2)C1=O (configuration not stated),inactive,
O=C(Nc1cc(Cl)ccc1-n1cncn1)c1ccc([N+](=O)[O-])o1,inactive,
COc1cc(C(=O)OCC(=O)NCCN2C(=O)CSC2=O)ccc1OCc1c(C)noc1C,inactive,
CC(C)=CC(=O)Nc1ccccc1C(N)=O,"inconclusive: 2.82 µM [activator, partial curve, poor fit]",
CCN1CCN(Cc2ccc(NC(=O)c3cc(NC(=O)c4ccc5n[nH]nc5c4)cc(OC)c3)cc2C(F)(F)F)CC1,inactive,
Cc1cn(C2OC(COC(=O)c3ccccc3)C(OC(=O)c3ccccc3)C2OC(=O)c2ccccc2)c(=O)[nH]c1=O (configuration not stated),inactive,
Cc1c(O)ccc(/C=N/Nc2nc(-c3cccnc3)nc3ccccc23)c1O,"inconclusive: 3.16 µM [activator, partial curve, poor fit]",
CC(=O)c1ccc(NC(=S)NCC(c2ccco2)N2CCCC2)cc1 (configuration not stated),"inconclusive: 3.55 µM [activator, single point]",
Cc1cc(C(=O)NNC(=O)C2CCCC2)c(C)o1,"inconclusive: 4.47 µM [activator, single point]",
Cc1cccc(C)c1N(C(=O)c1ccco1)C(C(=O)NC1CCCC1)c1ccncc1 (configuration not stated),"inconclusive: 28.2 µM [activator, single point]",
COc1ccc(-n2cc([N+](=O)[O-])c(=O)c3ccc(Cl)cc32)cc1,"inconclusive: 10 µM [activator, single point]",
O=c1ccc(S(=O)(=O)N2CCCC2)cn1Cc1ccc(Cl)cc1Cl,"inconclusive: 1 µM [activator, partial curve, poor fit]",

Structure (SMILES),Potency,activation
N#Cc1ccccc1S(=O)(=O)N1CCN(C(=O)C2CCCCC2)CC1,"inconclusive: 5.62 µM [activator, full curve]",
O=C(CC(Nc1ccccc1Cl)C(=O)O)c1ccccc1 (configuration not stated),inactive,
O=C(NN=C1C2CC3CC(C2)CC1C3)c1ccccc1O,"inconclusive: 5.01 µM [activator, single point]",
C=CCOC(=O)Cn1cnc2c(sc3nc(C)cc(C)c32)c1=O,inactive,
CCOC(=O)C1(CCOc2ccccc2)CCN(Cc2ccc(OCC)c(CO)c2)CC1,"inconclusive: 28.2 µM [activator, single point]",
COc1ccccc1/C=C/C(=O)NCC(=O)N=Nc1c(O)[nH]c2ccccc12,"inconclusive: 3.16 µM [activator, single point]",
Cc1cccc(OCC(O)CN2CCc3ccccc3C2)c1 (configuration not stated),inactive,
O=C(Nc1cccc(-c2cn3c(n2)SCC3)c1)c1ccc(Br)o1,"inconclusive: 0.501 µM [activator, full curve, poor fit]",
COc1cc(OC)cc(C(=O)NCC(=O)OCc2cc(=O)oc3cc(OC)ccc23)c1,"inconclusive: 28.2 µM [activator, single point]",
Cc1cccn2c(=O)c3cc(C(=O)NCCCN4CCCC4=O)n(C)c3nc12,inactive,
CC(Sc1nc(N)cc(=O)[nH]1)C(=O)NNC(=O)c1cccc(Cl)c1 (configuration not stated),"inconclusive: 28.2 µM [activator, single point]",
CSc1nc2ncc(-c3ccsc3)c(N)n2n1,inactive,
CCC(OC(=O)CC1Sc2ccccc2NC1=O)C(=O)NCC1CCCO1 (configuration not stated),"inconclusive: 5.01 µM [activator, single point]",
Cn1c(SCC(=O)Nc2cccc(NC(=O)c3cccs3)c2)nnc1-c1ccncc1,"inconclusive: 2 µM [activator, full curve, poor fit]",
COc1ccc(N2C(=NC(=O)CC3CCCCC3)SC3CS(=O)(=O)CC32)cc1 (configuration not stated),"inconclusive: 5.01 µM [activator, single point]",
Nc1nc(CSc2ccc(Cl)cc2)nc(N2CCCCC2)n1,inactive,
CCOC(=O)/C(C#N)=C/N1CCOCC1,"inconclusive: 31.6 µM [activator, single point]",
O=C(CCc1nnc(-c2ccc(-c3ccccc3)cc2)o1)N1CCCCC1,inactive,
COc1ccc(C(=O)Nc2ccc(Cl)cn2)cc1Cl,"inconclusive: 11.2 µM [activator, partial curve, poor fit]",
COc1cccc(/C=N/N2CCN(c3ccc(Cl)cc3)CC2)c1OC,inactive,
Nc1nc(SCc2cccc([N+](=O)[O-])c2)n[nH]1,"inconclusive: 5.01 µM [activator, single point]",
CCOc1ccc(-c2nc(-c3cccs3)c(CC(=O)O)s2)cc1OC,"inconclusive: 5.62 µM [activator, partial curve, poor fit]",
O=C(NCc1cccnc1)/C(=C\c1ccc(-c2ccc(Br)cc2)o1)S(=O)(=O)c1ccccc1,inactive,
Cc1cc(C)nc(SCC(=O)Nc2ccnc3ccccc23)n1,inactive,

# — PubChem BioAssay AID624291 (National Center for Advancing Translational Sciences (NCATS), 2012)
